These are yes or no findings as the source states them, for the method shown. Binding seen in cells or lysates may run through a third protein.

This experiment deals with Enhancer of Zeste [E(z)] (D. melanogaster (endogenous in larval CNS)) (UniProt P42124). Description: co-IP; third instar larval CNS protein extracts (1 mg per reaction; 25 mM Hepes, 0.1 mM EDTA, 12.5 mM MgCl2, 10% glycerol, 0.01% NP-40, 10 mM NaCl; sonicated), precipitated with anti-Ph or anti-E(z) overnight at 4°C on protein A/G beads, Western blot.

On to “Drosophila TET catalytic dead (TET^CD-GFP fusion protein from Tet^CD-GFP knock-in flies) (from UniProt M9NEY8-5)”, for which the binding result was “no binding”.

The record behind these values is paper PMC11068012.
